Screening data, single-dose tests

Mtb glucose medium: 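Whole-cell growth test on Mycobacterium tuberculosis, read after 3 days in glucose-containing 7H9 medium; the read-out is not stated. Tested at 50 µM. Higher reads as more growth inhibition (inferred: compounds with an IC50 in retests scored well above the rest). Of about 69,000 compounds tested this way, about 760 (1.1%) reached 50% or more in at least one test.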
Mtb cholesterol medium: 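Phenotypic screen: M. tuberculosis growth, cholesterol and DPPC medium, 4 days; the read-out is not stated. Concentration: 50 µM. Direction is inferred from retests: higher values go with more growth inhibition. About 69,000 compounds were tested under these conditions; 0.54% (about 370) showed 50% or more at least once.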

Values are the deposited “Percent Effect”, in %.
How 0% and 100% were set is not recorded. Most values in the screen are low, and negative values occur.
Compounds were drawn at random from those tested, without regard to their results.
Two or more numbers in one place are separate tests of the same structure; such repeats can differ widely.

- CN(c1ncnc2sccc12)C1CCCN(c2cccnn2)C1 (centres undefined) : Mtb glucose medium: -1.25%; Mtb cholesterol medium: 21.8% & 31.33%
- [H][C@]12CC[C@@]3(N=C(C)N(CC(C)C)C3=O)[C@@]1([H])CN(S(=O)(=O)N(C)C)C2 : Mtb glucose medium: -21.52%; Mtb cholesterol medium: -14.44%
- CC(C(=O)Nc1ccccc1Sc1ccccc1)S(C)(=O)=O (centres undefined) : Mtb glucose medium: 16.58%; Mtb cholesterol medium: 14.74%
- [H][C@@]12CS(=O)(=O)C[C@]1([H])N(C(=O)c1ccc(COC)o1)CCN2CCOC : Mtb glucose medium: -11.35%; Mtb cholesterol medium: -7.981%
- CC(C)CN1CCC(NCCNc2cccnc2)CC1 : Mtb glucose medium: 7.297%; Mtb cholesterol medium: 7.227%
- Cc1nc2c(C)cccc2cc1C(=O)N1CCC2(CCCNC2)C1 (centres undefined) : Mtb glucose medium: 24.76%; Mtb cholesterol medium: 21.31%
- Cc1ccc(N2CCCC(N3CCC(CO)CC3)C2=O)cc1 (centres undefined) : Mtb glucose medium: -27.52%; Mtb cholesterol medium: -24.65%
- O=C(CN1CCCC(c2ncc[nH]2)C1)NCC(F)(F)F (centres undefined) : Mtb glucose medium: 3.705% & 8.898%; Mtb cholesterol medium: 4.158%
- CN1CCc2c(CNC(=O)c3nccn3C)cncc2C1.Cl.Cl.Cl : Mtb glucose medium: -10.84%; Mtb cholesterol medium: -6.61%
- COc1ccccc1NC(=O)NCCCC(=O)Nc1cn[nH]c1 : Mtb glucose medium: -27.29%; Mtb cholesterol medium: 1.636%
- Cc1cncc(C2CCCN(C(=O)c3cn(C)nc3C)C2)n1 (centres undefined) : Mtb glucose medium: 20.11%; Mtb cholesterol medium: 4.498%
- CCOCC(O)CN1CCN(C(=O)c2cc(C)ccc2F)CC1 (centres undefined) : Mtb glucose medium: -26.37%; Mtb cholesterol medium: -26.36%
- CCc1nc(CNc2ccc(-c3nc(C4CC4)no3)cn2)no1 : Mtb glucose medium: 18.16%; Mtb cholesterol medium: 17.45%
- Cc1nnc(CN(C)CC(=O)N2CCCC(C)CC2)n1C (centres undefined) : Mtb glucose medium: -23.26% & -2.343%; Mtb cholesterol medium: 9.811%
- Cc1nsc(NC2CCN(c3ccccc3OC(F)F)C2=O)n1 (centres undefined) : Mtb glucose medium: 44.37% & 27.15%; Mtb cholesterol medium: 38.14%
- CC(C)NCc1cc2n(n1)CCN(C1CCCCC1)C2 : Mtb glucose medium: -27.6%; Mtb cholesterol medium: -40.04%
- COc1ccc(C)cc1NS(=O)(=O)c1ccc(CCNC(C)=O)s1 : Mtb glucose medium: -32.19%; Mtb cholesterol medium: -33.8%
- N#Cc1cccc(N2CCC3(CC2)Nc2ccccc2NC3=O)n1 : Mtb glucose medium: -2.938%; Mtb cholesterol medium: -1.71%
- c1cc(-c2ccc3c(c2)CCC32CCN(c3nncs3)CC2)co1 : Mtb glucose medium: -37.6%; Mtb cholesterol medium: 3.804%
- Cc1ccc(N2CCCC(NCc3c(C)noc3C)C2)nn1 (centres undefined) : Mtb glucose medium: -20.78%; Mtb cholesterol medium: -20.31%
- CCN(CC)C(=O)[C@@H]1C[C@H](NC(=O)c2ccn(C(C)(C)C)c2)CN1C : Mtb glucose medium: -18.7%; Mtb cholesterol medium: -5.243%
- CC1c2ncc(Cn3cccn3)n2CCN1Cc1cccnc1.O=C(O)C(F)(F)F.O=C(O)C(F)(F)F (centres undefined) : Mtb glucose medium: -4.203%; Mtb cholesterol medium: 8.205%
- CN(C)CCOCc1nnc2n1CCN(Cc1ccoc1)CC2.O=C(O)C(F)(F)F.O=C(O)C(F)(F)F : Mtb glucose medium: -42.34%; Mtb cholesterol medium: 4.038%
- CCOCCNC(=O)c1ccc(OC)cc1I : Mtb glucose medium: 8.871% & -2.287%; Mtb cholesterol medium: 0.6589%
- O=C(NCC(CO)Cc1ccc(Cl)cc1)c1ccncc1F (centres undefined) : Mtb glucose medium: 4.312% & -10.05%; Mtb cholesterol medium: 15.28%

Measurements from “University of Dundee, Small-Polar-MMV Screening Library” (2021), ChEMBL document CHEMBL3988442.